Screen size: about 390,000 compounds; about 910 (0.23%) were called active. The inconclusive results got no clear call from the source; some entries with a clear call stand among them for comparison. Calls follow the shape of the dose curve; as a rule, active = well fitted inhibition curve with a large enough effect; inconclusive = small, poorly fitted or top-dose-only effect; inactive = no such curve, though single readings can be large or run the other way. Potencies of inconclusive entries are doubtful fits and often do not repeat.
Target: Ubiquitin carboxyl-terminal hydrolase 1 (Homo sapiens) (UniProt O94782)
Experiment: Inhibitors of USP1/UAF1: Primary Screen; also: nearly all actives have a fitted effect of over 60% in size
Settings: recombinant USP1/UAF1, Ub-Rhodamine cleavage fluorescence; activity change, negative = inhibition: at 57.1 µM (top of the series)
Outline: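 Step one: compound is pinned into 1nM USP1/UAF1 in HEPES pH 7.8 buffer with TCEP. Step two: 15 min room-temperature incubation. Step three: Ub-Rho (150nM final) starts cleavage, tracked by fluorescence over six one-minute reads.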
% is scaled to controls: 0 for no effect and ±100 for the full control effect; potency is read from the fitted curve at half-maximal effect.

Amino acid sequences for entries named in this document (tags omitted). A change or cut given only in a name is not applied to a line headed by its entry.
UniProt O94782: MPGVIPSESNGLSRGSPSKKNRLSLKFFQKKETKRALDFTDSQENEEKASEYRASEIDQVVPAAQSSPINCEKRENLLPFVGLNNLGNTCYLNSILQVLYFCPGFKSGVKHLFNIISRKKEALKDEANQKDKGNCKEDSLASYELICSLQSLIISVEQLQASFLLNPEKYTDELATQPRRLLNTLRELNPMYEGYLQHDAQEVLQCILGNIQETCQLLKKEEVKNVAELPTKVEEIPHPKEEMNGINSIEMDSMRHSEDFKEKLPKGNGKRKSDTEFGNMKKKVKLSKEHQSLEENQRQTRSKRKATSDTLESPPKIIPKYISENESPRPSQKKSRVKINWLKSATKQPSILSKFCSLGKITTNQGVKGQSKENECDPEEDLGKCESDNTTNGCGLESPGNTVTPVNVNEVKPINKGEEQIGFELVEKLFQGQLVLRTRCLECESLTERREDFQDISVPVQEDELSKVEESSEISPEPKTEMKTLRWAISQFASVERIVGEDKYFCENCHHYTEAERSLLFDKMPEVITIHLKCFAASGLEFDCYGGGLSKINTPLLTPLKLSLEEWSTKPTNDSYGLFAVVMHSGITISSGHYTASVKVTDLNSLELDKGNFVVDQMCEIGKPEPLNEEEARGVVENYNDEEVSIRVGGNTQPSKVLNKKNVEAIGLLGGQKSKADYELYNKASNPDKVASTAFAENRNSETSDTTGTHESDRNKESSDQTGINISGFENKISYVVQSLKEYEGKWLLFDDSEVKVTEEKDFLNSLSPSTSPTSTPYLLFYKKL

Structure (SMILES)	activity change, negative = inhibition	Potency
CC(C)Oc1ccc(CNC(=O)c2cnc3sc(N4CCCC4)nn3c2=O)cc1	inactive: 1.69%	
Cc1cc(=O)oc(C)c1C(=O)N1CCc2c([nH]c3ccccc23)C1C(C)C (stereo unspecified)		inconclusive: 39.8 µM [inhibitor, single point]
COc1ccc(C(C)=O)cc1CSc1nc(Nc2ccc(F)c(F)c2)c2ccccc2n1		inconclusive: 8.91 µM [inhibitor, partial curve, poor fit]
O=C(Oc1ccc(Cl)cc1)N1CCOCC1	inactive: -9.38%	
CCCCN(C(=O)NC(=O)C1=C(N2CCOCC2)/C(=C/c2ccccc2)CC1)S(C)(=O)=O	inactive: 0.45%	
CCC(C(=O)NCCc1ccc(OC)c(OC)c1OC)n1nc(C)c2sc3ccccc3c2c1=O (stereo unspecified)		inconclusive: 0.251 µM [inhibitor, full curve, poor fit]
O=C1CCCC(=O)N1c1ccc(N2CCN(c3ccccc3)CC2)c([N+](=O)[O-])c1	inactive: -5.43%	
CC1(OC(=O)CCc2ccccc2)C(=O)C=C2C=C3CCCN3C=C2C1=O (stereo unspecified)		inconclusive: 50.1 µM [inhibitor, partial curve, poor fit]
CCOC(=O)C1CCN(C(=O)Cc2c(F)cccc2Cl)CC1		inconclusive: 0.282 µM [inhibitor, full curve]
CCN(CC)CCOC(=O)c1ccc(N/C=C(/C#N)c2nc(-c3cc4ccccc4oc3=O)cs2)cc1		inconclusive: 3.16 µM [inhibitor, full curve]
Cc1ccsc1C1NC(=O)c2c(sc3c2CCCC3)N1 (stereo unspecified)	inactive: -22%	
COc1ccc(NC(=O)Cn2nc(C(=O)O)c3ccccc3c2=O)cc1S(=O)(=O)N1CCCCC1		inconclusive: 0.251 µM [inhibitor, full curve, poor fit]
COc1ccc(C(=O)/C=C/Nc2ccc([N+](=O)[O-])cc2C)c(OC)c1	inactive: 52.2%	
OC(CN1C2=NCCN2c2ccccc21)c1ccccc1 (stereo unspecified)		inconclusive: 0.224 µM [inhibitor, full curve, poor fit]
CC(C)(C)C(=O)C1=C(O)C(=O)N(Cc2ccccc2)C1c1ccccc1F (stereo unspecified)	inactive: -16.1%	
CCC(C)c1ccc(Nc2ncccc2C#N)cc1 (stereo unspecified)	inactive: -26.6%	
CCOc1ccccc1NC(=O)Cn1c(=O)nc(-c2ccccc2F)c2cc(Cl)ccc21		inconclusive: 31.6 µM [inhibitor, partial curve, poor fit]
COc1ccc(N2CSC3=C(C#N)C(c4ccc(OC)c(OC)c4)CC(=O)N3C2)c(OC)c1 (stereo unspecified)		inconclusive: 44.7 µM [inhibitor, partial curve]
CCc1ccc(CNC(=O)CN2C(=O)C3CCCCN3c3ccc(C(=O)N4CCCC4)cc32)cc1 (stereo unspecified)		inconclusive: 7.94 µM [inhibitor, partial curve, poor fit]
C/C(=N\NC(=S)Nc1ccc(F)cc1)c1ccc2c(c1)OCCO2	inactive: -4.11%	
O=C(Nc1ccccc1)C(=O)c1c[nH]c2ccccc12		inconclusive: 15.8 µM [inhibitor, partial curve, poor fit]

Structure (SMILES)	activity change, negative = inhibition	Potency
CC(C)n1cnc2c(NCc3ccc(S(N)(=O)=O)cc3)nc(NCc3ccc(S(N)(=O)=O)cc3)nc21		inconclusive: 6.31 µM [inhibitor, partial curve]
COc1ccc(NC(=O)CNC(=O)Cn2ccc3ccccc3c2=O)cc1OC	inactive: -21.1%	
CCCCOc1cccc(C2c3c(-c4cc(C)ccc4O)n[nH]c3C(=O)N2CCOC)c1 (stereo unspecified)		inconclusive: 1 µM [inhibitor, full curve, poor fit]
O=C(NC1CCCCCC1)C1CCCN(S(=O)(=O)c2cnc[nH]2)C1 (stereo unspecified)		inconclusive: 0.708 µM [inhibitor, full curve, poor fit]
Cc1ccc(-c2csc(Cc3nc(-c4cc5ccccc5oc4=O)cs3)n2)cc1		inconclusive: 63.1 µM [inhibitor, single point]
COc1cccc(NC(=O)CSc2nnnn2C2CCCC2)c1		inconclusive: 6.31 µM [inhibitor, partial curve, poor fit]
COc1ccc(NCc2ccc([N+](=O)[O-])s2)cc1		inconclusive: 28.2 µM [inhibitor, single point]
COc1cc2c(c(OC)c1O)C(=O)CO2	inactive: -17.2%	
O=C(O)c1ccc(NN=CC2=C(N3CCOCC3)/C(=C/c3ccccc3)CC2)cc1		inconclusive: 20 µM [inhibitor, partial curve]
CCOC(=O)c1ccc(Nc2cc(C)nc(-c3ccccc3O)n2)cc1		inconclusive: 14.1 µM [inhibitor, partial curve]
Cc1cc(NS(=O)(=O)c2ccc(NC(=O)COc3cc(C)c(Br)cc3C(C)C)cc2)no1		inconclusive: 50.1 µM [inhibitor, partial curve, poor fit]
CCN(c1ccccc1)S(=O)(=O)c1ccc(OC)c(NC(=O)Cn2cnc3c2c(=O)n(C)c(=O)n3C)c1		inconclusive: 5.01 µM [inhibitor, partial curve, poor fit]
CCCCCCCNC(=O)C1(CC2CC(c3ccccc3)=NO2)CCN(C(=O)c2ccccc2)CC1 (stereo unspecified)		inconclusive: 89.1 µM [inhibitor, partial curve, poor fit]
CCN1CCN(C(=O)Cn2ncc3c4ccccc4n(Cc4c(C)cc(C)cc4C)c3c2=O)CC1	inactive: -21.7%	
CCc1cccc(NC(=O)C2CCN(c3ncnc4sc(C)c(C)c34)CC2)c1		inconclusive: 35.5 µM [inhibitor, partial curve]
O=C(CNC(=S)NC(=O)C1CCCCC1)c1ccccc1	inactive: 6.29%	
CCOC(=O)C1=C(N)Oc2cc(O)ccc2C1c1cccc([N+](=O)[O-])c1 (stereo unspecified)		inconclusive: 44.7 µM [inhibitor, single point]
O=S(=O)(Nc1ccccc1N1CCCCC1)c1ccc(Cl)s1		inconclusive: 44.7 µM [inhibitor, partial curve, poor fit]
Cn1c(C(=O)N2CCN(c3ncccn3)CC2)cc2c(=O)n(C)c3ccccc3c21		inconclusive: 44.7 µM [inhibitor, partial curve, poor fit]
CCCSCCCNC(=O)Cn1c(-c2cccs2)cc2ccccc21		inconclusive: 7.08 µM [inhibitor, single point]

Reformatted comma-delimited: part of the list above.
Structure (SMILES),"activity change, negative = inhibition",Potency
O=C(Oc1ccc(Cl)cc1)N1CCOCC1,inactive: -9.38%,
CCOC(=O)C1CCN(C(=O)Cc2c(F)cccc2Cl)CC1,,"inconclusive: 0.282 µM [inhibitor, full curve]"

Reference: PubChem BioAssay AID743255 (National Center for Advancing Translational Sciences (NCATS), 2014)
